Source: patent publication US10072252B2 (priority 2013, dated 2018)
Numbering of substitutions follows the chain as printed. Names and notes keep the numbering of the source. The name of at least one read-out is uncertain. Some compounds share one wording; it may come from a single statement.

B1: SsoPox W263F: SsoPox (SEQ ID NO: 3) with W263F variation (protein, listed as Sulfolobus solfataricus)
chain: MRIPLVGKDSIESKDIGFTLIHEHLRVFSEAVRQQWPHLYNEDEEFRNAVNEVKRAMQFGVKTIVDPTVMGLGRDIRFMEKVVKATGINLVAGTGIYIYIDLPFYFLNRSIDEIADLFIHDIKEGIQGTLNKAGFVKIAADEPGITKDVEKVIRAAAIANKETKVPIITHSNAHNNTGLEQQRILTEEGVDPGKILIGHLGDTDNIDYIKKIADKGSFIGLDRYGLDLFLPVDKRNETTLRLIKDGYSDKIMISHDYCCTIDFGTAKPEYKPKLAPRWSITLIFEDTIPFLKRNGVNEEVIATIFKENPKKFFS
B2: SsoPox W263L: SEQ ID NO: 3 with substitution of tryptophan W in position 263 by leucine L (protein, listed as Sulfolobus solfataricus)
chain: B1 chain with F263L
B3: SsoPox W263A: SEQ ID NO: 3 with substitution of tryptophan W in position 263 by alanine A (protein, listed as Sulfolobus solfataricus)
chain: B1 chain with F263A
B4: SsoPox W263M: SEQ ID NO: 3 with substitution of tryptophan W in position 263 by methionine M (protein, listed as Sulfolobus solfataricus)
chain: B1 chain with F263M

assay type: biochemical; conditions: pH 8.3

Row | Molecule | kcat/KM
1 | B1 | efficiency equivalent to the wt enzyme
2 | B2 | lost the ability to hydrolyse this molecule
3 | B3 | lost the ability to hydrolyse this molecule
4 | B4 | lost the ability to hydrolyse this molecule
